Record: PubChem BioAssay AID1259254 (NCATS, 2017)
The deposit covers about 59,000 reagents; shown is a part drawn at random. About 1,550 of them (2.6%) were called active. 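G2 share is only a proxy for re-replication; each gene was hit by three separate siRNAs, and active genes were retested.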 Reagents against one gene are numbered here. Further read-outs or replicates are left out here. Reagent sequences are not shown. Not stated in the record: the amount of reagent.

- Screen: 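Gene knock-downs that lead to re-replication, shown by excess G2 DNA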 (primary screen)
- Cells: human HCT116 colorectal cancer cells
- Reagent: single siRNA against human genes
- Duration: 3 days
- Measured: 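Nuclei stained with Hoechst and imaged; cell-cycle phase assigned by DNA content; G2 share scaled per plate, non-targeting siRNA 0%, GMNN siRNA 100%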
- Reading the numbers: G2 robust z-score: higher = more G2 cells, more excess DNA replication
- Hit rule: 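An siRNA counts as active if its G2 robust z-score lies at least 5 MADs above the screen median; here such calls match roughly 38% of GMNN control or more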

G2 robust z-score, by gene and reagent
ZNF853: #1 -0.352 inactive; #2 3.87 inactive; #3 -0.591 inactive
NDUFB10: #1 1.31 inactive; #2 -0.795 inactive; #3 -1.22 inactive
GZMB: #1 -0.0974 inactive; #2 -1.6 inactive; #3 -0.225 inactive
PCDHA4: #1 1 inactive; #2 -0.00571 inactive; #3 -0.888 inactive
SPPL2B: #1 4.53 inactive; #2 1.16 inactive; #3 -0.444 inactive
RETNLB: #1 -0.279 inactive; #2 1.03 inactive; #3 -0.0328 inactive
MEP1B: #1 -0.872 inactive; #2 1.42 inactive; #3 -0.203 inactive
MAK16: #1 2.06 inactive; #2 12.7 active; #3 1.03 inactive
TMEM254: #1 0.846 inactive; #2 1.85 inactive; #3 -1.21 inactive
ATF6: #1 -1.42 inactive; #2 0.00626 inactive; #3 0.818 inactive
FGF12: #1 1.77 inactive; #2 -0.37 inactive; #3 0.877 inactive
H3P44: #1 -1.03 inactive; #2 0.288 inactive; #3 -0.277 inactive
FTL: #1 3.73 inactive; #2 0.587 inactive; #3 5.09 active
PDSS2: #1 -0.251 inactive; #2 -0.925 inactive; #3 0.624 inactive
CLEC2D: #1 0.37 inactive; #2 3.11 inactive; #3 -1.12 inactive

Entries listed above with an active call:
G2 robust z-score, by gene and reagent
MAK16: #2 12.7 active
FTL: #3 5.09 active

The results go on:
G2 robust z-score, by gene and reagent
CNTLN: #1 2.08 inactive; #2 3.87 inactive; #3 1.82 inactive
NT5DC2: #1 -1.02 inactive; #2 -0.911 inactive; #3 -0.904 inactive
ARL11: #1 5.85 active; #2 -0.146 inactive; #3 -1.01 inactive
PLEKHM2: #1 0.757 inactive; #2 -0.868 inactive; #3 2.52 inactive
MTX1: #1 0.38 inactive; #2 1.68 inactive; #3 -0.536 inactive
SPRN: #1 0.66 inactive; #2 0.458 inactive; #3 1.29 inactive
ERCC4: #1 -0.912 inactive; #2 2.21 inactive; #3 0.963 inactive
SMIM3: #1 -0.457 inactive; #2 -0.332 inactive; #3 1.35 inactive
WASHC2A: #1 -0.567 inactive; #2 1.65 inactive; #3 1.54 inactive
PRAMEF7: #1 -1.12 inactive; #2 2.97 inactive; #3 -0.812 inactive
GGPS1: #1 -0.451 inactive; #2 -0.569 inactive; #3 0.81 inactive
EIF3A: #1 5.46 active; #2 4.18 inactive; #3 1.82 inactive
ERG28: #1 -0.859 inactive; #2 -0.109 inactive; #3 3.8 inactive
PSMD7: #1 -0.434 inactive; #2 1.08 inactive; #3 2.31 inactive
